Data as given in PubChem BioAssay AID1224830 (NIAID, 2016)
Assay: 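Genes whose knock-down alters the TNF-alpha reporter response to LPS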 (primary screen). Cells: human THP-1 monocytic leukaemia cells, TNF dual-luciferase reporter clone, PMA-differentiated to macrophage-like cells. Reagent: siRNA pool against human genes, 50 nM. Timing: LPS for 4 h, given about 3 days after siRNA transfection. Challenge: bacterial LPS (TLR4 ligand), 10 ng/ml. Measurement: 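TNF firefly reporter luminescence divided by renilla, normalised to the plate median, then turned into a robust z-score for each replicate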. Reading the numbers: TNF reporter robust z-score: higher = stronger TNF reporter response to LPS. Active means: 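Each well counts as active if its z-score is over 2.8 or under -1.5; controls are left without a call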.
Shown is a random part of about 18,000 reagents. Over the whole deposit, about 2,900 (16%) are marked active. 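Calls are made per well; low scores hint the gene aids the LPS response, high scores that it dampens it.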 Unmarked entries are inactive. Repeated entries: four replicate wells of each siRNA pool. Reagent sequences are not shown.

gene	TNF reporter robust z-score
TMEM40 (GeneID 55287)	0.4
TMEM40 (GeneID 55287)	1.14
TMEM40 (GeneID 55287)	-0.57
TMEM40 (GeneID 55287)	0.54
CMTM6 (GeneID 54918)	0.44
CMTM6 (GeneID 54918)	-0.65
CMTM6 (GeneID 54918)	-0.28
CMTM6 (GeneID 54918)	-0.54
COMMD6 (GeneID 170622)	-0.53
COMMD6 (GeneID 170622)	0.35
COMMD6 (GeneID 170622)	-0.12
COMMD6 (GeneID 170622)	0.1
PEX19 (GeneID 5824)	-0.88
PEX19 (GeneID 5824)	-0.42
PEX19 (GeneID 5824)	-1.31
PEX19 (GeneID 5824)	0.02
GSTP1 (GeneID 2950)	-1.51 (active)
GSTP1 (GeneID 2950)	-1.14
GSTP1 (GeneID 2950)	-0.73
GSTP1 (GeneID 2950)	-1.12
DCAF12 (GeneID 25853)	3.8 (active)
DCAF12 (GeneID 25853)	0.91
DCAF12 (GeneID 25853)	1.34
DCAF12 (GeneID 25853)	1.24
PLPPR4 (GeneID 9890)	2.13
PLPPR4 (GeneID 9890)	0.09
PLPPR4 (GeneID 9890)	0.93
PLPPR4 (GeneID 9890)	1.96
ZNF496 (GeneID 84838)	-0.65
ZNF496 (GeneID 84838)	0.09
ZNF496 (GeneID 84838)	1.29
ZNF496 (GeneID 84838)	0.19
SEPSECS (GeneID 51091)	0.39
SEPSECS (GeneID 51091)	-0.14
SEPSECS (GeneID 51091)	0.66
SEPSECS (GeneID 51091)	0.24
GUCY2D (GeneID 3000)	-0.42
GUCY2D (GeneID 3000)	-1.33
GUCY2D (GeneID 3000)	-0.41
GUCY2D (GeneID 3000)	-0.8
PRR3 (GeneID 80742)	0.64
PRR3 (GeneID 80742)	1
PRR3 (GeneID 80742)	0.15
PRR3 (GeneID 80742)	1.21
KCNN3 (GeneID 3782)	-0.31
KCNN3 (GeneID 3782)	-0.48
KCNN3 (GeneID 3782)	0.25
ZBTB12 (GeneID 221527)	0.4
ZBTB12 (GeneID 221527)	0.49
ZBTB12 (GeneID 221527)	0.51
ZBTB12 (GeneID 221527)	0.13
MMGT1 (GeneID 93380)	0.73
MMGT1 (GeneID 93380)	1.14
MMGT1 (GeneID 93380)	0.67
MMGT1 (GeneID 93380)	-1.25
TPPP2 (GeneID 122664)	-0.87
TPPP2 (GeneID 122664)	-0.7
TPPP2 (GeneID 122664)	0.01
TPPP2 (GeneID 122664)	-0.4
DRD4 (GeneID 1815)	-0.01
DRD4 (GeneID 1815)	0.76
DRD4 (GeneID 1815)	-0.29
DRD4 (GeneID 1815)	1.3
CACNG6 (GeneID 59285)	0.67
CACNG6 (GeneID 59285)	1.62
CACNG6 (GeneID 59285)	0.71
CACNG6 (GeneID 59285)	0.77
SELENOM (GeneID 140606)	0.07
SELENOM (GeneID 140606)	0.96
SELENOM (GeneID 140606)	-0.52
SELENOM (GeneID 140606)	0.51
SDSL (GeneID 113675)	-1.8 (active)
SDSL (GeneID 113675)	-0.66
SDSL (GeneID 113675)	-1.51 (active)
SDSL (GeneID 113675)	-0.62

Records above called active, once more:
gene	TNF reporter robust z-score
GSTP1 (GeneID 2950)	-1.51 (active)
DCAF12 (GeneID 25853)	3.8 (active)
SDSL (GeneID 113675)	-1.8 (active)
SDSL (GeneID 113675)	-1.51 (active)
